The subject of the experiment is CD2F1 mice, intracerebral P388 leukemia, median survival T/C%. Put plainly: NCI In Vivo Anticancer Drug Screen. Data for tumor model P388 Leukemia (intracerebral) in CD2F1 (CDF1) mice. The note with it: T/C endpoint: median survival time, schedule: Q03HX008 (ip), vehicle: saline, higher T/C = longer survival. As to the method:
The antitumor activity of compounds was measured in mice bearing transplantable tumors. Survival or tumor size were measured and the results are expressed as the measurement made in the treated group (T) divided by the measurement made in the vehicle treated control group (C). The tumor model used in this assay is P388 Leukemia (intracerebral) in CD2F1 (CDF1) mice

Each structure is given as a SMILES string. The list does not hold the whole screen: its compounds were picked by chemical class. Not every dose and run of a compound is shown. T/C: endpoint of the treated group in % of that of the vehicle group. Some doses have a count of surviving animals in place of a T/C: the source holds a T/C of zero for them, seemingly a mark for toxic or unscored doses. Some survivor counts are full or nearly so, which does not show that the dose was tolerated: the source hardly ever lists a survival T/C far under the control, and the zero likely stands for such cases as well. Counts of survivors are from the toxicity check (mostly the fifth day) where no day follows; animals may have died later. Schedule codes are those of the source, read here as Q, the interval in days (D) or hours (H), X, the number of doses. For survival time, this PubChem deposit counts one and a half times the control or more as active, and values a quarter to a half above the control carry no call in these data; other NCI protocols may use other cut-offs. Some T/C values carry the count of animals alive at the toxicity check (mostly the fifth day); where neither a count nor a note follows, no animal had died by that day. Some doses were run more than once; their values stand side by side, smallest first.

The record followed here is PubChem BioAssay AID334 (DTP/NCI, 2004).

Regarding `O=C(O)CCc1ccc(N(CCCl)CCCl)cc1`, the T/C is, setting by setting: (dose: 0.24 mg/kg/injection) 100 % of control [9 of 10 alive]; (dose: 0.48 mg/kg/injection) 100 % of control; (dose: 0.95 mg/kg/injection) 100 % of control; (dose: 1.9 mg/kg/injection) 105 % of control; (dose: 3.8 mg/kg/injection) 105 % of control; (dose: 7.6 mg/kg/injection) 110 and 126 % of control [9 of 10 alive]. For the same compound, the survivor count was 10 of 10 (dose: 3.8 mg/kg/injection), 4 of 10 (dose: 15.2 mg/kg/injection) and 0 of 10 (dose: 30.4 mg/kg/injection).
